Test results reported in PMC12431657, “Discovery and mechanistic insights of dibenzoylmethane as a broad spectrum inhibitor of coronavirus” (PLOS Pathogens, 2025).
Structures can show the parent of a compound that is named as a salt. Where two headings read alike, the source gives them in different places. Screen size: about 3,300 compounds; about 95 (3%) showed an effect of 50% or more. The list shows a part of the results.

Test system: HCoV-229E
Parameters: species or system Huh-7; HTS, protection from HCoV-229E induced cell death, luminescent cell viability (CellCounting-Lite 2.0), inhibition rate
Conditions: 24 h post infection, 1 h compound pre-incubation, 10 µM, inhibitor

Question: With CN1CCc2cc3c(cc2C1O)OCO3 (centres unmarked) [Hydrastinine] as the molecule, how does the “229E Inhibition rate” value (229E Inhibition rate, 24 h) read?
Answer: 19.2%

Question: Which “229E Inhibition rate” value does the source give for C[C@@H]1O[C@@H](O[C@H]2[C@H](OC(=O)[C@]34CCC(C)(C)C[C@H]3C3=CC[C@@H]5[C@@]6(C)C[C@H](O)[C@H](O[C@@H]7O[C@H](CO)[C@@H](O)[C@H](O[C@@H]8O[C@H](CO)[C@@H](O)[C@H](O)[C@H]8O)[C@H]7O)C(CO)(CO)[C@@H]6CC[C@@]5(C)[C@]3(C)C[C@H]4O)OC[C@H](O)[C@@H]2O)[C@H](O)[C@H](O)[C@H]1O[C@@H]1OC[C@@H](O)[C@H](O[C@@H]2OC[C@](O)(CO)[C@H]2O)[C@H]1O [Platycodin D2] here?
Answer: 4.5%

Question: For CCC(C)c1nccnc1OC (centres unmarked) [2-Sec-butyl-3-methoxypyrazine], which “229E Inhibition rate” value is on record?
Answer: 18.6%

Question: For COc1ccc2cc3n(c(=O)c2c1OC)CCc1cc2c(cc1-3)OCO2 [Oxyberberine], which “229E Inhibition rate” value is on record?
Answer: 37.5%

Question: C=C1C(=O)[C@@]23[C@@H]4OC5O[C@@]2(O)[C@@H](O)[C@@H]2C(C)(C)CC[C@@H](O)[C@]52[C@@H]3CC[C@@H]14 [ponicidin] was tested. Which “229E Inhibition rate” value did it give?
Answer: 95.6%

Question: For O=C(/C=C/c1ccc(O)c(O)c1)OC[C@H]1O[C@@H](OCCc2ccc(O)c(O)c2)[C@H](O)[C@@H](O)[C@@H]1O [Calceolarioside B], which “229E Inhibition rate” value is on record?
Answer: 10.8%

Question: Which “229E Inhibition rate” value does the source give for COC(=O)[C@@H](Cc1ccc(O)c(O)c1)OC(=O)/C=C/c1ccc(O)c(O)c1 [Methyl rosmarinate] here?
Answer: 13%

Question: Which “229E Inhibition rate” value does the source give for COc1ccc([C@@H]2CC(=O)c3c(O)cc(O[C@@H]4O[C@H](CO[C@@H]5O[C@@H](C)[C@H](O)[C@@H](O)[C@H]5O)[C@@H](O)[C@H](O)[C@H]4O)cc3O2)cc1O [Hesperidin] here?
Answer: 33.4%

Question: With CC(C)NCC(O)COc1cccc2ccccc12 (centres unmarked) [Propranolol (hydrochloride)] as the molecule, how does the “229E Inhibition rate” value (229E Inhibition rate, 24 h) read?
Answer: 21.5%

Question: COc1c2ccoc2c(OC)c2oc(=O)ccc12 [Isopimpinellin] was tested. Which “229E Inhibition rate” value did it give?
Answer: 15.5%

Question: With c1ccc2c(c1)cc1ccc3cccc4ccc2c1c34 [Benzo[a]pyrene] as the molecule, how does the “229E Inhibition rate” value read?
Answer: 24.5%

Question: Which “229E Inhibition rate” value does the source give for COc1ccc(O)cc1OC [3,4-Dimethoxyphenol] here?
Answer: 20.6%

Question: Which “229E Inhibition rate” value does the source give for COc1c2cc3c(c1OC)CCN(C)[C@@H]3Cc1ccc(cc1)Oc1cc3c(c(OC)c1OC)CCN(C)[C@@H]3Cc1ccc(cc1)O2 [Cycleanine] here?
Answer: 5.3%

Question: COc1cc2cc(Oc3ccc4ccc(=O)oc4c3)c(=O)oc2cc1O [Daphnoretin] was tested. Which “229E Inhibition rate” value did it give?
Answer: 11.2%

Question: For C[C@]1(OC(=O)/C=C/c2ccccc2)C[C@@H](O)[C@]2(O)C=CO[C@@H](O[C@@H]3O[C@H](CO)[C@@H](O)[C@H](O)[C@H]3O)[C@@H]21 [Harpagoside], which “229E Inhibition rate” value is on record?
Answer: 19.6%

Question: Which “229E Inhibition rate” value does the source give for COc1ccc(-c2cc(=O)c3c(O)cc(O)c(-c4cc(-c5cc(=O)c6c(O)cc(O)cc6o5)ccc4OC)c3o2)cc1 [Isoginkgetin] here?
Answer: 6.1%

Question: CCCCC(CC)COC(=O)c1ccccc1C(=O)O (centres unmarked) [Phthalic acid mono-2-ethylhexyl ester] was tested. Which “229E Inhibition rate” value did it give?
Answer: 19.1%

Question: CC1(C)[C@@H]2CC[C@@]1(C)C(=O)C2 [(+)-Camphor] was tested. Which “229E Inhibition rate” value did it give?
Answer: 14.5%

Question: With O=Cc1c[nH]c2ccccc12 [Indole-3-carboxaldehyde] as the molecule, how does the “229E Inhibition rate” value read?
Answer: 19%

Question: Cn1cncc1C[C@H](NC(=O)CCN)C(=O)O [Anserine] was tested. Which “229E Inhibition rate” value (229E Inhibition rate, 24 h) did it give?
Answer: 14.1%

Question: Which “229E Inhibition rate” value does the source give for C[C@@H]1C[C@H]2CC3=C(CCC(=O)N3)[C@@]3(C1)[C@@H]2CCCN3C [α-Obscurine] here?
Answer: 2.4%

Question: Which “229E Inhibition rate” value does the source give for COc1cc(O)c2c(c1)oc(=O)c1c3cc(O)c(O)cc3oc21 [Wedelolactone] here?
Answer: 29.8%

Question: For C[C@H](CCC(=O)O)[C@H]1CC[C@H]2[C@@H]3CC=C4C[C@@H](O)CC[C@]4(C)[C@H]3CC[C@]12C [3b-Hydroxy-5-cholenoic acid], which “229E Inhibition rate” value is on record?
Answer: 19%

Question: Which “229E Inhibition rate” value does the source give for Nc1cc[nH]c(=O)n1 [Cytosine] here?
Answer: 23.8%

Question: For N[C@@H](CC(=O)O)C(=O)O [L-Aspartic acid], which “229E Inhibition rate” value (229E Inhibition rate, 24 h) is on record?
Answer: 9.8%

Question: CC1=CC(=O)CC(C)(C)C1 [Isophorone] was tested. Which “229E Inhibition rate” value did it give?
Answer: 14.6%

Question: For OCc1ccc(CO)o1 [2,5-Furandimethanol], which “229E Inhibition rate” value is on record?
Answer: 11.4%

Question: C[C@@H]1O[C@@H](O[C@H]2[C@H](O[C@H]3CC[C@]4(C)[C@H]5CC=C6[C@@H]7CC(C)(C)CC[C@]7(C(=O)O)CC[C@@]6(C)[C@]5(C)CC[C@H]4C3(C)C)OC[C@H](O[C@@H]3O[C@H](CO)[C@@H](O)[C@H](O)[C@H]3O)[C@@H]2O)[C@H](O)[C@H](O)[C@H]1O [Hederacolchiside A1] was tested. Which “229E Inhibition rate” value did it give?
Answer: 2.2%

Question: CC(=O)Oc1ccc(/C=C/c2cc(OC(C)=O)cc(OC(C)=O)c2)cc1 [Triacetylresveratrol] was tested. Which “229E Inhibition rate” value did it give?
Answer: 0%

Question: C[C@@H]1O[C@@H](OC[C@H]2O[C@@H](Oc3cc(O)c4c(c3)O[C@H](c3ccc(O)cc3)CC4=O)[C@H](O)[C@@H](O)[C@@H]2O)[C@H](O)[C@H](O)[C@H]1O [Narirutin] was tested. Which “229E Inhibition rate” value did it give?
Answer: 10.6%

Question: Which “229E Inhibition rate” value does the source give for CC(C)C(N)CC(=O)O (centres unmarked) [3-Amino-4-methylpentanoic acid] here?
Answer: 10.1%

Question: How did the “229E Inhibition rate” value turn out when CC1=C(O)C(=O)C=C2C1=CC=C1[C@@]2(C)CC[C@@]2(C)[C@@H]3C[C@](C)(C(=O)O)CC[C@]3(C)CC[C@]12C [Tripterin] was run?
Answer: 0.3%

Question: How did the “229E Inhibition rate” value turn out when COc1ccc(-c2oc3cc(O)cc(O)c3c(=O)c2O)cc1 [Kaempferide] was run?
Answer: 13.1%

Question: How did the “229E Inhibition rate” value turn out when CC(C)(O)C1Cc2cc3cc(-c4cc(O)cc(O)c4)oc3cc2O1 (centres unmarked) [Moracin O] was run?
Answer: 35.7%

Question: For COC(=O)c1ccc(O)cn1 [Methyl 5-hydroxypyridine-2-carboxylate], which “229E Inhibition rate” value is on record?
Answer: 18.9%

Question: O=c1cc(-c2ccc(O)cc2)oc2cc(O)c([C@@H]3O[C@H](CO)[C@@H](O)[C@H](O)[C@H]3O)c(O)c12 [Isovitexin] was tested. Which “229E Inhibition rate” value did it give?
Answer: 21%

Question: Which “229E Inhibition rate” value does the source give for CC1(C)CC[C@]2(C)CC[C@]3(C)C(=CC[C@@H]4[C@@]5(C)CC[C@H](O)C(C)(C)[C@@H]5CC[C@]43C)[C@@H]2C1 [β-Amyrin] here?
Answer: 29.8%

Question: For C[C@@H](CO)[C@@H]1CC[C@@]2(CC[C@]3(C)[C@H](CC[C@@H]4[C@@]5(C)CC[C@H](O[C@@H]6O[C@H](CO)[C@@H](O)[C@H](O)[C@H]6O[C@@H]6O[C@H](CO)[C@@H](O)[C@H](O)[C@H]6O)[C@@](C)(CO[C@@H]6O[C@H](CO)[C@@H](O)[C@H](O)[C@H]6O)[C@@H]5CC[C@]43C)[C@H]2O)CO1 [Hosenkoside A], which “229E Inhibition rate” value is on record?
Answer: 34.5%
